From article PMC11760092, “Pretreatment with serine protease inhibitors impairs Leishmania amazonensis survival on macrophages” (Parasites & Vectors, 2025)

Columns and labels:
[1] = tested on: Leishmania amazonensis-WT promastigotes; assay: Antipromastigote assay (MTT); assay type: cell-based; settings: CC50 in macrophages/IC50 in parasite
Protocol: Leishmania amazonensis–WT promastigotes, in the logarithmic phase of growth, were transferred to 96-well culture plates (final concentration 2 × 10^6 cells/mL) and exposed to different concentrations of inhbitors during 72 h at 25 °C. The cell viability was evaluated by the 3-(4,5-dimethylthiazol-2-yl)-2,5 diphenyltetrazolium bromide (MTT) method (obtained from Sigma-Aldrich). The inhibitory concentration of 50% of parasite growth (IC50) values were calculated using GraphPad Prism 8 software […]. Three independent experiments in triplicate were performed. Amphotericin B (Cristália, São Paulo, SP, Brazil) was used as a reference drug.

[2] = tested on: L. amazonensis (RFP) amastigotes; assay: Antiamastigote assay (RFP fluorescence, infected peritoneal macrophages); assay type: cell-based, Leishmania amazonensis; settings: CC50 in macrophages/IC50 in parasite
Protocol: Peritoneal macrophages from BALB/c mice were obtained by peritoneal lavage and distributed in 24-well plates at 2 × 10^6 cells/mL in RPMI medium (Cultilab) containing 10% FBS and a 0.5% penicillin and streptomycin solution (complete RPMI). The plates were incubated for 1 h at 37 °C and 5% CO2, washed with phosphate-buffered saline (PBS), and then reincubated in complete RPMI medium overnight. The cells were washed again with PBS and infected with stationary growth phase L. amazonensis (RFP) promastigotes at a 10:1 ratio for 4 h at 33 °C. The plates were washed with PBS and the inhibitors were added at different concentrations and incubated for 72 h. After this time, each well was scraped to remove attached cells and the reading was taken with a spectrofluorimeter (FLx800, BioTek Instruments, Winooski, VT, USA) at 530 nm and 590 nm of excitation and emission, respectively. […] All assays were performed in triplicate and repeated three times. Results were calculated as the percentage of amastigote survival compared with the nontreated control group, and IC50 values were determined using GraphPad Prism 8 software.

For `Cc1ccc(S(=O)(=O)N[C@@H](Cc2ccccc2)C(=O)CCl)cc1` [TPCK, N-p-tosyl-L-phenylalanine chloromethyl ketone], the “Selectivity index (SI) Promastigote” value [1] was 9.5 and the “Selectivity index (SI) Amastigote” value [2] was 9.8.
